In patent US20250107528A1, “PYRAZINE COMPOUNDS FOR THE CONTROL OF INVERTEBRATE PESTS” (BASF SE, priority 2021, published 2025):
Some of these results come from one statement about several compounds together.

Tests used:
Format in all cases: in vivo
Anthonomus grandis = test: Boll weevil (Anthonomus grandis) egg/larval test on insect diet in 96-well microtiter plates; conditions: 2500 ppm; egg and larval mortality; 5 days
Description: B.3 Boll Weevil (Anthonomus grandis)
For evaluating control of boll weevil (Anthonomus grandis), the test unit consisted of 96-well-microtiter plates containing an insect diet and 5-10 A. grandis eggs.
The compounds were formulated using a solution containing 75% v/v water and 25% v/v DMSO. Different concentrations of formulated compounds were sprayed onto the insect diet at 5 μl, using a custom-built micro atomizer, at two replications.
After application, microtiter plates were incubated at about 25±1° C. and about 75±5% relative humidity for 5 days. Egg and larval mortality was then visually assessed.

Heliothis virescens = test: Tobacco budworm (Heliothis virescens) egg/larval test on insect diet in 96-well microtiter plates; conditions: 2500 ppm; egg and larval mortality; 5 days
Description: B.2 Tobacco Budworm (Heliothis virescens)
For evaluating control of tobacco budworm (Heliothis virescens), the test unit consisted of 96-well-microtiter plates containing an insect diet and 15-25 H. virescens eggs.
The compounds were formulated using a solution containing 75% v/v water and 25% v/v DMSO. Different concentrations of formulated compounds were sprayed onto the insect diet at 10 μl, using a custom-built micro atomizer, at two replications.
After application, microtiter plates were incubated at about 28±1° C. and about 80±5% relative humidity for 5 days. Egg and larval mortality was then visually assessed.

Spodoptera eridania = test: Southern armyworm (Spodoptera eridania), 2nd instar larvae, foliar spray on lima bean plants; conditions: 300 ppm; 2nd instar larvae on sprayed lima bean; 4 days after treatment
Description: B.4. Southern Armyworm (Spodoptera eridania), 2nd Instar Larvae
The active compounds were formulated by a Tecan liquid handler in 100% cyclohexanone as a 10,000-ppm solution supplied in tubes. The 10,000-ppm solution was serially diluted in 100% cyclohexanone to make interim solutions. These served as stock solutions for which final dilutions were made by the Tecan in 50% acetone:50% water (v/v) into 10 or 20 ml glass vials. A non-ionic surfactant (Kinetic®) was included in the solution at a volume of 0.01% (v/v). The vials were then inserted into an automated electrostatic sprayer equipped with an atomizing nozzle for application to plants/insects. Lima bean plants (variety Sieva) were grown 2 plants to a pot and selected for treatment at the 1st true leaf stage. Test solutions were sprayed onto the foliage by an auto-mated electrostatic plant sprayer equipped with an atomizing spray nozzle. The plants were dried in the sprayer fume hood and then removed from the sprayer. Each pot was placed into perforated plastic bags with a zip closure. Ten to 11 armyworm larvae were placed into the bag and the bags zipped closed. Test plants were maintained in a growth room at about 25° C. and about 20-40% relative humidity for 4 days, avoiding direct exposure to fluorescent light (14:10 light:dark photoperiod) to prevent trapping of heat inside the bags. Mortality and reduced feeding were assessed 4 days after treatment, compared to untreated control plants.

Aedes aegypti = conditions: 2500 ppm; larval mortality; 2 days
Description: B.5 Yellow Fever Mosquito (Aedes aegypti)
For evaluating control of yellow fever mosquito (Aedes aegypti) the test unit consisted of 96-well-microtiter plates containing 200 μl of tap water per well and 5-15 freshly hatched A. aegypti larvae.
The active compounds were formulated using a solution containing 75% (v/v) water and 25% (v/v) DMSO. Different concentrations of formulated compounds or mixtures were sprayed onto the insect diet at 2.5 μl, using a custom-built micro atomizer, at two replications.
After application, microtiter plates were incubated at 28±1° C., 80±5% RH for 2 days. Larval mortality was then visually assessed.

| Structure (SMILES) | mortality in comparison with untreated controls (Anthonomus grandis) | mortality in comparison with untreated controls (Heliothis virescens) | mortality in comparison with untreated controls (Spodoptera eridania) | mortality in comparison with untreated controls (Aedes aegypti) |
| --- | --- | --- | --- | --- |
| CC(NC(=O)c1cc(C(F)(F)F)cc(C(F)(F)F)c1)c1nccnc1C=NOCc1cccnc1 (stereo not drawn) [I-23] | at least 75% | at least 75% | at least 75% |  |
| CC(=NOCc1cc(F)cc(Br)c1)c1nccnc1C(C)NC(=O)c1cc(C(F)(F)F)cc(C(F)(F)F)c1 (stereo not drawn) [I-33] |  | at least 75% |  | at least 75% |
| Cc1nc(NC(=O)NN=Cc2nccnc2C(C)NC(=O)c2cc(C(F)(F)F)cc(C(F)(F)F)c2)no1 (stereo not drawn) [I-46] | at least 75% |  | at least 75% | at least 75% |
| COCCNC(=O)NN=Cc1nccnc1C(C)NC(=O)c1cc(C(F)(F)F)cc(C(F)(F)F)c1 (stereo not drawn) [I-47] |  |  | at least 75% | at least 75% |
| CC(=NNC(=O)NCCc1ccccn1)c1nccnc1C(C)NC(=O)c1cc(C(F)(F)F)cc(C(F)(F)F)c1 (stereo not drawn) [I-53] | at least 75% | at least 75% |  |  |
| CC(=NNC(=O)NCc1ccc(Cl)nc1)c1nccnc1C(C)NC(=O)c1cc(C(F)(F)F)cc(C(F)(F)F)c1 (stereo not drawn) [I-57] |  |  | at least 75% | at least 75% |
| COC(=O)CNC(=O)NN=C(C)c1nccnc1C(C)NC(=O)c1cc(C(F)(F)F)cc(C(F)(F)F)c1 (stereo not drawn) [I-61] | at least 75% | at least 75% |  |  |
| C=CCON=C(C)c1nccnc1C(C)NC(=O)c1cc(C(F)(F)F)cc(C(F)(F)F)c1 (stereo not drawn) [I-77] |  | at least 75% | at least 75% | at least 75% |
| CC(=NOCC(F)F)c1nccnc1C(C)NC(=O)c1cc(C(F)(F)F)cc(C(F)(F)F)c1 (stereo not drawn) [I-81] |  | at least 75% | at least 75% | at least 75% |
| CC(=NOCC1CC2C=CC1C2)c1nccnc1C(C)NC(=O)c1cc(C(F)(F)F)cc(C(F)(F)F)c1 (stereo not drawn) [I-82] |  | at least 75% | at least 75% | at least 75% |
| CC(=NNC(=O)NCc1ncccn1)c1nccnc1C(C)NC(=O)c1cc(C(F)(F)F)cc(C(F)(F)F)c1 (stereo not drawn) [I-89] | at least 75% | at least 75% | at least 75% |  |
| CC(=NNC(=O)NCC(C)C)c1nccnc1C(C)NC(=O)c1cc(C(F)(F)F)cc(C(F)(F)F)c1 (stereo not drawn) [I-90] | at least 75% | at least 75% |  | at least 75% |
| CC(=NNC(=O)Nc1csc(C(F)(F)F)n1)c1nccnc1C(C)NC(=O)c1cc(C(F)(F)F)cc(C(F)(F)F)c1 (stereo not drawn) [I-92] |  | at least 75% |  | at least 75% |
| CC(NC(=O)c1cc(C(F)(F)F)cc(C(F)(F)F)c1)c1nccnc1C=NOCC1CCC1 (stereo not drawn) [I-100] |  |  | at least 75% | at least 75% |
| CC(NC(=O)c1cc(C(F)(F)F)cc(C(F)(F)F)c1)c1nccnc1C=NOCC1(C)CC1 (stereo not drawn) [I-103] | at least 75% |  | at least 75% | at least 75% |
| CCN1CCCC(ON=Cc2nccnc2C(C)NC(=O)c2cc(C(F)(F)F)cc(C(F)(F)F)c2)C1 (stereo not drawn) [I-104] | at least 75% |  | at least 75% | at least 75% |
| CC(NC(=O)c1cc(C(F)(F)F)cc(C(F)(F)F)c1)c1nccnc1C=NOCC(F)(F)C(F)F (stereo not drawn) [I-105] |  | at least 75% |  | at least 75% |
| CC(NC(=O)c1cc(C(F)(F)F)cc(C(F)(F)F)c1)c1nccnc1C=NOC(C)c1ccccn1 (stereo not drawn) [I-107] | at least 75% |  | at least 75% | at least 75% |
| CC(NC(=O)c1cc(C(F)(F)F)cc(C(F)(F)F)c1)c1nccnc1C=NOCC1COC(C)(C)O1 (stereo not drawn) [I-113] |  | at least 75% | at least 75% | at least 75% |
| CC(C#N)ON=Cc1nccnc1C(C)NC(=O)c1cc(C(F)(F)F)cc(C(F)(F)F)c1 (stereo not drawn) [I-114] | at least 75% | at least 75% | at least 75% |  |
| CC(NC(=O)c1cc(C(F)(F)F)cc(C(F)(F)F)c1)c1nccnc1C=NNC(=O)NCC#N (stereo not drawn) [I-115] | at least 75% |  | at least 75% | at least 75% |
| CC(NC(=O)c1cc(C(F)(F)F)cc(C(F)(F)F)c1)c1nccnc1C=NN(C(=O)Nc1ccccc1)c1ccccc1 (stereo not drawn) [I-122] | at least 75% |  | at least 75% | at least 75% |
| CCCCNC(=O)NN=Cc1nccnc1C(C)NC(=O)c1cc(C(F)(F)F)cc(C(F)(F)F)c1 (stereo not drawn) [I-128] | at least 75% |  | at least 75% | at least 75% |
| COCC(COC)ON=Cc1nccnc1C(C)NC(=O)c1cc(C(F)(F)F)cc(C(F)(F)F)c1 (stereo not drawn) [I-134] | at least 75% |  | at least 75% | at least 75% |
| CC(NC(=O)c1cc(C(F)(F)F)cc(C(F)(F)F)c1)c1nccnc1C=NOC(C)c1cccc(C(F)(F)F)c1 (stereo not drawn) [I-135] | at least 75% |  | at least 75% | at least 75% |
| CCC(ON=Cc1nccnc1C(C)NC(=O)c1cc(C(F)(F)F)cc(C(F)(F)F)c1)c1ccc(Cl)cc1 (stereo not drawn) [I-145] |  |  | at least 75% | at least 75% |
| CC(=NOCc1coc(-c2ccc(Cl)cc2)n1)c1nccnc1C(C)NC(=O)c1cc(C(F)(F)F)cc(C(F)(F)F)c1 (stereo not drawn) [I-151] |  | at least 75% | at least 75% | at least 75% |
| COc1ccc(C(C)ON=C(C)c2nccnc2C(C)NC(=O)c2cc(C(F)(F)F)cc(C(F)(F)F)c2)cc1OC (stereo not drawn) [I-158] | at least 75% | at least 75% |  | at least 75% |
| CON=C(N)c1nccnc1C(C)NC(=O)c1cc(Cl)cc(S(=O)(=O)C(F)(F)F)c1 (stereo not drawn) [I-181] | at least 75% | at least 75% |  | at least 75% |
